Assay results from patent US11795381B2, “Using synthetic acid compositions as alternatives to conventional acids in the oil and gas industry” (priority 2016, dated 2023).
Where a name gives a salt, the structure may show the parent alone.

Key:
[1] = Corrosion testing on J-55 steel coupons; conditions: Table 9: J-55, 70° C., 6 hours; additives None
[2] = Wormholing Experiment #1 (matrix acidizing core flood); conditions: 180° F.
[3] = Buijse and Glasbergen fit, Indiana limestone

Row | SMILES | Mils/yr [1] [Mils/yr] | Mm/year [1] [Mm/year] | Optimal Interstitial Velocity [2, 3] [cm/min] | Optimal Pore Volume to Breakthrough [2, 3] | Pore Volume to Breakthrough ([2]; core IC1, injection 8 ml/min, interstitial velocity 4.53 cm/min) | Pore Volume to Breakthrough ([2]; core IC2, injection 10 ml/min, interstitial velocity 6.39 cm/min) | Pore Volume to Breakthrough ([2]; core IC3, injection 7 ml/min, interstitial velocity 4.97 cm/min) | Pore Volume to Breakthrough ([2]; core IC5, injection 5 ml/min, interstitial velocity 3.47 cm/min) | Pore Volume to Breakthrough ([2]; core IC6, injection 3 ml/min, interstitial velocity 2.10 cm/min) | Pore Volume to Breakthrough ([2]; core IC16, injection 2 ml/min, interstitial velocity 1.56 cm/min) | Pore Volume to Breakthrough ([2]; core IC18, injection 0.8 ml/min, interstitial velocity 0.62 cm/min)
1 | Cl [7.5% HC1, hydrochloric acid] | 3550.3032 | 90.178 | – | – | – | – | – | – | – | – | –
2 | Cl [15% HCl, hydrochloric acid] | – | – | 1.97 | 0.46 | 0.60 | 0.52 | 0.60 | 0.51 | 0.47 | 0.64 | 2.93
